From PubChem BioAssay AID1259354 (Paczesny and Yang Labs, IUPUI and University of Michigan, 2018)
“And” between values parts separate entries of the source, which are not always exact repeats. Identical values can stand only once. The campaign covered roughly 78,000 compounds. About 1,800 (2.3%) were called active. The inconclusive results got no clear call from the source; some entries with a clear call stand among them for comparison. Rule as the data show it: active = inhibition above about 30%; inconclusive = mostly about 10% to 28%; inactive = weaker than that.

The chains behind the UniProt entries cited, without tags or fusion partners. Where a name states a change or a piece, a line headed by the entry shows the natural chain unless it says otherwise.
UniProt Q01638: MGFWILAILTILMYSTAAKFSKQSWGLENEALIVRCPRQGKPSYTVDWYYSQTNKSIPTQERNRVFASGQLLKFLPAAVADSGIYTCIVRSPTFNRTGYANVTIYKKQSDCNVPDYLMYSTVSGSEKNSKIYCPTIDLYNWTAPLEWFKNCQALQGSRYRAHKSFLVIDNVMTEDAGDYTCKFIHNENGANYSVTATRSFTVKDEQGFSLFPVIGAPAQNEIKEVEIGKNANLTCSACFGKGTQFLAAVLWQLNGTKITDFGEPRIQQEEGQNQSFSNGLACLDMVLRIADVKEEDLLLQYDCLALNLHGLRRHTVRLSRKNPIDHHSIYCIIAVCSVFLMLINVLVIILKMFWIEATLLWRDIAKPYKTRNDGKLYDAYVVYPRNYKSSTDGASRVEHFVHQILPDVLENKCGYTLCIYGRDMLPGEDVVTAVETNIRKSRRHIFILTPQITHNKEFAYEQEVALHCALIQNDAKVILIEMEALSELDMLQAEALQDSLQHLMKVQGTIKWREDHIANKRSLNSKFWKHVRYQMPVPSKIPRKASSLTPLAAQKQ

target: Interleukin-1 receptor-like 1 (Homo sapiens) (UniProt Q01638); experiment: blocks human ST2 binding to IL-33, primary screen, biochemical, AlphaLISA (AID 1259354); conditions: AlphaLISA ST2-Fc/biotin-IL-33 interaction, 1 h; at 17 µM, stronger effect = higher value

Question: For Cc1nc(-c2ccc(O)cc2)cs1, which inhibition is on record?
Answer: inactive

Question: O=C(Nc1c(F)cc(F)cc1Br)c1noc2c1CCCC2 was tested. Which inhibition did it give?
Answer: inconclusive: 10%

Question: Which inhibition does the source give for O=C(Cn1cnc2sc3c(c2c1=O)CCCC3)NCC(=O)N1CCN(Cc2ccccc2)CC1 here?
Answer: inactive

Question: With CCc1ccc(S(=O)(=O)N2CCCN(S(=O)(=O)c3ccc(CC)cc3)CC2)cc1 as the compound, how does the inhibition read?
Answer: inactive

Question: For OC(COc1ccc(C2C=CCC2)cc1)CN1CCCCC1 (stereo not given), which inhibition is on record?
Answer: active: 52%

Question: How did the inhibition turn out when Cc1ccc(-n2c(SCc3ccc([N+](=O)[O-])cc3)nc3c(c2=O)SCC3)cc1 was run?
Answer: inconclusive: 19%

Question: O=C(CCC1CCN(C(=O)NC2CCCCC2)CC1)Nc1ccccc1 was tested. Which inhibition did it give?
Answer: inactive

Question: Which inhibition does the source give for Cn1cc(C(F)(F)F)nc1-c1ccc(OCC(O)CNCCOc2ccc(O)c(C(N)=O)c2)cc1 (stereo not given) here?
Answer: inconclusive: 13%

Question: Which inhibition does the source give for Cc1cccn2c(CC(=O)N3CCC(O)(CN(C)C)C3)cnc12 (stereo not given) here?
Answer: inconclusive: 18%

Question: CCOC(=O)c1c(NC(=O)c2c(F)cccc2F)sc2c1CCN(CC)C2 was tested. Which inhibition did it give?
Answer: inconclusive: 15%

Question: COc1ccc(C(=O)CSc2nnc(-c3ccc4c(c3)OCO4)n2-c2ccccc2)cc1 was tested. Which inhibition did it give?
Answer: inconclusive: 23% and inconclusive: 13%

Question: For CCN(CC)c1ccc(/C=C2\SC(=O)N(CC(=O)N3CCOCC3)C2=O)cc1, which inhibition is on record?
Answer: inactive

Question: For CC(=O)c1ccc(C(=O)N2CCc3c(c(C(=O)N(C)Cc4cscn4)nn3CC3CC3)C2)s1, which inhibition is on record?
Answer: inconclusive: 12%

Question: O=C1NC(=O)/C(=C\c2cccc(OCc3ccccc3)c2)S1 was tested. Which inhibition did it give?
Answer: inconclusive: 18%

Question: Which inhibition does the source give for COc1ccc2cc(C(=O)NC(C)=O)c(=Nc3ccc(C(F)(F)F)cc3)oc2c1 here?
Answer: inconclusive: 14%

Question: For C#CCNC(=O)C[C@@H]1C[C@@H](C(C)C)[C@H](CNS(=O)(=O)c2cccc(C#N)c2)C=C1C, which inhibition is on record?
Answer: inconclusive: 19%

Question: CC(C)C[C@@H](N)C(=O)N(C)Cc1cnn(-c2ccc(F)cc2)c1 was tested. Which inhibition did it give?
Answer: inactive

Question: For Nc1nonc1C(=NCc1ccccc1)NO, which inhibition is on record?
Answer: inconclusive: 11%

Question: COc1ccc2cc3cc(C(=O)N(C)c4cc(C)ccc4OC)sc3nc2c1 was tested. Which inhibition did it give?
Answer: inconclusive: 18%

Question: For O=C(O)CNc1cccc(C(=O)NCCc2ccncc2)c1, which inhibition is on record?
Answer: inactive

Question: For O=C1CCCc2nn(-c3ccccc3)c(-c3ccccc3O)c21, which inhibition is on record?
Answer: inconclusive: 15%

Question: How did the inhibition turn out when C[C@H]1[C@@H]2[C@@H](O)C([C@H](C)C(=O)NCCN3CCOCC3)CC[C@@]2(C)CC[C@@H]1NC(=O)Nc1cccc(F)c1 (stereo not given in full) was run?
Answer: inconclusive: 17%

Question: How did the inhibition turn out when CCN(CC)S(=O)(=O)c1ccc(OC)c([N+](=O)[O-])c1 was run?
Answer: inconclusive: 13%

Question: For CCCc1cc(C(=O)Nc2sc3c(c2C(N)=O)CCCC3)no1, which inhibition is on record?
Answer: inconclusive: 15%

Question: Which inhibition does the source give for CCSc1nc(CC(=O)N2CC[C@H]3CC[C@@H](C2)N3)cs1 here?
Answer: inconclusive: 14%
